For five molecules, binding results are on record in article PMC10681733.

Sequences of proteins named here, by UniProt entry; tags and fusion partners are left off.
UniProt O09106: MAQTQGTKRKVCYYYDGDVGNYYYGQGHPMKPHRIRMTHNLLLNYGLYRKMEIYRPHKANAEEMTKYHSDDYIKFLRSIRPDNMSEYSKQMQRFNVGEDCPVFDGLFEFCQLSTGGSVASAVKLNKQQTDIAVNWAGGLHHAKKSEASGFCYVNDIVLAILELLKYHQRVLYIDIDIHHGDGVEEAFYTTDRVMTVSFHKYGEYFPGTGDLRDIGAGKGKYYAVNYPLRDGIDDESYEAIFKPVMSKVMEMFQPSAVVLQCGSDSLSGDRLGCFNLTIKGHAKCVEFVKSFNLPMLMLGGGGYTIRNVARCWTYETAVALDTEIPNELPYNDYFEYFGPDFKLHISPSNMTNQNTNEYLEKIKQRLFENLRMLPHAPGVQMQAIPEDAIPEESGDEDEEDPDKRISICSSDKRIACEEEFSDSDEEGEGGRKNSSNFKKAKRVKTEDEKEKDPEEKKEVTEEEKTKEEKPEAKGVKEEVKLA
UniProt Q13547: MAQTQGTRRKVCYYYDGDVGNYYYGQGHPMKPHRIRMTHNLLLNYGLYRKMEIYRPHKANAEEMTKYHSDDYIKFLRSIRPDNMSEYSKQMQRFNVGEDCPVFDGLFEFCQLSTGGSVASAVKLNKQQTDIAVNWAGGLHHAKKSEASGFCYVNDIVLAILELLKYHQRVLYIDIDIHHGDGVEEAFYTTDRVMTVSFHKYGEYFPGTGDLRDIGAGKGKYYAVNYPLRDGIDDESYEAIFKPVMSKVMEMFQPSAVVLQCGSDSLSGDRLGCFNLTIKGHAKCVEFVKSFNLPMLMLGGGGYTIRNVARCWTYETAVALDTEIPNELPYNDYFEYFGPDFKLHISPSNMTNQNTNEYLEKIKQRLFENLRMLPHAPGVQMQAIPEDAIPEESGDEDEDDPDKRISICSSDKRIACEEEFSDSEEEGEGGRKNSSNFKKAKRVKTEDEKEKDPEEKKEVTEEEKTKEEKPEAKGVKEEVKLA

In experiment [1] the target is T1, V5-tagged version of the endogenous GSE1 protein (human) (UniProt Q14687).
T1 sequence: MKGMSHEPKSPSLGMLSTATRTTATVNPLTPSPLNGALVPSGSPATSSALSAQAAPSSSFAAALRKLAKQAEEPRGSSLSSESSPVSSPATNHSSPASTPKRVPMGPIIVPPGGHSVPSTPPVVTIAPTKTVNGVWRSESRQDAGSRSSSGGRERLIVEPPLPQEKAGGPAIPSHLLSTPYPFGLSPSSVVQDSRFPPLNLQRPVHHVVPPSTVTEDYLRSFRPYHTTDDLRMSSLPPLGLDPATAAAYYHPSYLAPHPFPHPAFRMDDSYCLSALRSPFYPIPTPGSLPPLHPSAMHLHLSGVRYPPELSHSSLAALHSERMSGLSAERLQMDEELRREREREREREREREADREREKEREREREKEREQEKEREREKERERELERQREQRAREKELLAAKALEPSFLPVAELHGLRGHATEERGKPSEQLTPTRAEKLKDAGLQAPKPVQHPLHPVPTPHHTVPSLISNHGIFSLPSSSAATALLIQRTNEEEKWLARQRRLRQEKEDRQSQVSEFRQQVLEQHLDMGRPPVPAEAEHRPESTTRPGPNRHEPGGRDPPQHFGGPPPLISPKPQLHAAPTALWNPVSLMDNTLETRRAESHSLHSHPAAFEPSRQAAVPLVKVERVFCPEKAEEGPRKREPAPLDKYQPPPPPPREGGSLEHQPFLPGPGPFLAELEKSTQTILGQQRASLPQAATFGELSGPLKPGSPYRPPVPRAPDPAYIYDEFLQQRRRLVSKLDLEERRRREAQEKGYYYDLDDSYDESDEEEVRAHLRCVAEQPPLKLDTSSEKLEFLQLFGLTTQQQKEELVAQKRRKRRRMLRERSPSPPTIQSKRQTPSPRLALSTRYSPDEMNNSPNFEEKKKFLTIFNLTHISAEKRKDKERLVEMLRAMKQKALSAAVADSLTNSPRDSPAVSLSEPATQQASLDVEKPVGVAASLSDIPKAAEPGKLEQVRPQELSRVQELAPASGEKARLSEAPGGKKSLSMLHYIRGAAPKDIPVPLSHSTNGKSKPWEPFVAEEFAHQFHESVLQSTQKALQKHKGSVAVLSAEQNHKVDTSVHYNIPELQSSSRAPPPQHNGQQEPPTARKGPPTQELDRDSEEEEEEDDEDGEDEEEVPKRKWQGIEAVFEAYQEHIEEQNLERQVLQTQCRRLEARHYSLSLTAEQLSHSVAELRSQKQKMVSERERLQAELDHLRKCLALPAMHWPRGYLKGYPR
Put plainly: affinity purification with mass spectrometry; GSE1-V5 captured on V5-beads from HAP1 whole cell extract (Hunt buffer), untreated and 6 h etoposide treated cells; control HAP1 WT cells; on-bead digest, label-free quantification.

In experiment [2] the target is FLAG-tagged HDAC1 in mouse embryonic fibroblasts (UniProt O09106). In words: affinity purification with mass spectrometry; HDAC1-FLAG purified from mouse embryonic fibroblast (MEF) whole cell extract on M2-FLAG beads; control wildtype cells; label-free quantification.
Experiment [3] has as its target C-terminally FLAG-tagged wildtype HDAC1 (UniProt Q13547). Put plainly: affinity purification with mass spectrometry; HDAC1-FLAG captured on crosslinked M2-FLAG beads from HAP1 whole cell extract (Hunt buffer: 20 mM Tris/HCl pH 8.0, 100 mM NaCl, 1 mM EDTA, 0.5% NP-40), overnight 4°C; control HDAC1 KO cells; on-bead digest, label-free quantification.

Results are given in words; binding and its absence hold for the method and conditions named. In cells and extracts the contact can be indirect. Here binding means that the protein was enriched with, or labelled near, the bait; the list need not be complete. For some assays here: Where a sequence is shown, tags or fusion partners need not be part of it.

B1: HMB20B (protein, UniProt Q9P0W2 1-317)
chain: MSHGPKQPGAAAAPAGGKAPGQHGGFVVTVKQERGEGPRAGEKGSHEEEPVKKRGWPKGKKRKKILPNGPKAPVTGYVRFLNERREQIRTRHPDLPFPEITKMLGAEWSKLQPTEKQRYLDEAEREKQQYMKELRAYQQSEAYKMCTEKIQEKKIKKEDSSSGLMNTLLNGHKGGDCDGFSTFDVPIFTEEFLDQNKAREAELRRLRKMNVAFEEQNAVLQRHTQSMSSARERLEQELALEERRTLALQQQLQAVRQALTASFASLPVPGTGETPTLGTLDFYMARLHGAIERDPAQHEKLIVRIKEILAQVASEHL
In the case of B1, the binding entry in experiment [1] is listed as “binds”.

B2: DDX46 (protein, UniProt Q7L014 1-1031)
chain: MGRESRHYRKRSASRGRSGSRSRSRSPSDKRSKRGDDRRSRSRDRDRRRERSRSRDKRRSRSRDRKRLRRSRSRERDRSRERRRSRSRDRRRSRSRSRGRRSRSSSPGNKSKKTENRSRSKEKTDGGESSKEKKKDKDDKEDEKEKDAGNFDQNKLEEEMRKRKERVEKWREEQRKKAMENIGELKKEIEEMKQGKKWSLEDDDDDEDDPAEAEKEGNEMEGEELDPLDAYMEEVKEEVKKFNMRSVKGGGGNEKKSGPTVTKVVTVVTTKKAVVDSDKKKGELMENDQDAMEYSSEEEEVDLQTALTGYQTKQRKLLEPVDHGKIEYEPFRKNFYVEVPELAKMSQEEVNVFRLEMEGITVKGKGCPKPIKSWVQCGISMKILNSLKKHGYEKPTPIQTQAIPAIMSGRDLIGIAKTGSGKTIAFLLPMFRHIMDQRSLEEGEGPIAVIMTPTRELALQITKECKKFSKTLGLRVVCVYGGTGISEQIAELKRGAEIIVCTPGRMIDMLAANSGRVTNLRRVTYVVLDEADRMFDMGFEPQVMRIVDNVRPDRQTVMFSATFPRAMEALARRILSKPIEVQVGGRSVVCSDVEQQVIVIEEEKKFLKLLELLGHYQESGSVIIFVDKQEHADGLLKDLMRASYPCMSLHGGIDQYDRDSIINDFKNGTCKLLVATSVAARGLDVKHLILVVNYSCPNHYEDYVHRAGRTGRAGNKGYAYTFITEDQARYAGDIIKALELSGTAVPPDLEKLWSDFKDQQKAEGKIIKKSSGFSGKGFKFDETEQALANERKKLQKAALGLQDSDDEDAAVDIDEQIESMFNSKKRVKDMAAPGTSSVPAPTAGNAEKLEIAKRLALRINAQKNLGIESQDVMQQATNAILRGGTILAPTVSAKTIAEQLAEKINAKLNYVPLEKQEEERQDGGQNESFKRYEEELEINDFPQTARWKVTSKEALQRISEYSEAAITIRGTYFPPGKEPKEGERKIYLAIESANELAVQKAKAEITRLIKEELIRLQNSYQPTNKGRYKVL
For the molecule B2, in experiment [1], the binding entry is “binds”.

B3: GSE1 (mouse) (protein, UniProt Q3U3C9 1-1213)
chain: MKGMSHEPKSPSIGMLSTATRTTATVNPLTPSPLNGALVPTGSPATSSTLSAQAAPSSSFAAALRKLAKQAEEPRGSSLSSESSPVSSPATNHSSPASTPKRVPMGPIIVPPGGHSVPSTPPVVTIAPTKTVNGVWRSESRQDSGSRGSSSGRERLLVEPPLAQEKAAGPAIPSHLLSTPYPFGLSPGSVVQDSRFQPLNLQRPVHHVVPPSTVTEDYLRSFRPYHTAEDLRMSSLPPLGLDPATAAAYYHPSYLAPHPFPHPAFRMDDSYCLSALRSPFYPIPTPGSLPPLHPSAMHLHLSGVRYPPELSHSSLAALHSERMSSLSAERLQMDEELRREREREREREREADREREKEREREQREKEREKELEREREKERERELERQREQRAREKELLAAKALEPTTFLPVAELHGLRGHSTEERPKPSEQLTPTRAEKLKDVGLQAPKPVQHPLHPVPAPHHTVPSLISSHGIFSLPGSSATTALLIQRTNEEEKWLARQRRLRQEKEDRQSQVSEFRQQVLEQHLDLGRPLVPTEAEHRPESTRPGTNRHEQGSREPPQHFGGPPPLISPKPQQHTVPTALWNPVSLMDNALETRRAESHSLHSHPTAFEPSRQAAVPLVKVERVYCSEKAEEPRKREATPLDKYQPPPPPPPPREAGSLEPQTFPHGPGPFLTELEKSTQTILGQQRPSLSQATSFGELSGPLKPGSPYCHPTARGPDPAYIYDEFLQQRRKLVSKLDLEERRRREAQEKGYYYDLDDSYDESDEEEVRAHLRCVAEQPPLKLDTSSEKLEFLQLFGLTTQQQKEELVAQKRRKRRRMLRERSPSPPAVQCKRQTPSPRLALSTRYSPDEMNNSPNFEEKRKFLTFFNLTHISAEKRKDKERLVEMLRAMKQRALSAADSVTNSSRDSPPVSLSEPATQPAPLETDQPVGVPASLSDVPKTTETGRLEQLRPQELLRVQEPAPPSGEKARLSEAPGGKKSLSMLHYLRGAAPKDIPVPLSHSINGKSKPWEPFVAEEFAHQFHESVLQSTQKALQKHKGNSALLSAEQSHKVDTAIHYNIPELQSSSRVPLPQHNGQQEPPMGRKGPPMQEADQDSEEDSEEDSEEEAEEAPRRQWQGIEAIFEAYQEHIEEQNLERQVLQTQCRRLEAQNYSLSLTAEQLSHSMAELRSQKQKMVSERERLQAELDHLRKCLALPTMHWPRGYFKGYPR
As for B3, the binding entry in experiment [2] is “binds”.

B4: OGT (protein, UniProt O15294 1-1046)
chain: MASSVGNVADSTEPTKRMLSFQGLAELAHREYQAGDFEAAERHCMQLWRQEPDNTGVLLLLSSIHFQCRRLDRSAHFSTLAIKQNPLLAEAYSNLGNVYKERGQLQEAIEHYRHALRLKPDFIDGYINLAAALVAAGDMEGAVQAYVSALQYNPDLYCVRSDLGNLLKALGRLEEAKACYLKAIETQPNFAVAWSNLGCVFNAQGEIWLAIHHFEKAVTLDPNFLDAYINLGNVLKEARIFDRAVAAYLRALSLSPNHAVVHGNLACVYYEQGLIDLAIDTYRRAIELQPHFPDAYCNLANALKEKGSVAEAEDCYNTALRLCPTHADSLNNLANIKREQGNIEEAVRLYRKALEVFPEFAAAHSNLASVLQQQGKLQEALMHYKEAIRISPTFADAYSNMGNTLKEMQDVQGALQCYTRAIQINPAFADAHSNLASIHKDSGNIPEAIASYRTALKLKPDFPDAYCNLAHCLQIVCDWTDYDERMKKLVSIVADQLEKNRLPSVHPHHSMLYPLSHGFRKAIAERHGNLCLDKINVLHKPPYEHPKDLKLSDGRLRVGYVSSDFGNHPTSHLMQSIPGMHNPDKFEVFCYALSPDDGTNFRVKVMAEANHFIDLSQIPCNGKAADRIHQDGIHILVNMNGYTKGARNELFALRPAPIQAMWLGYPGTSGALFMDYIITDQETSPAEVAEQYSEKLAYMPHTFFIGDHANMFPHLKKKAVIDFKSNGHIYDNRIVLNGIDLKAFLDSLPDVKIVKMKCPDGGDNADSSNTALNMPVIPMNTIAEAVIEMINRGQIQITINGFSISNGLATTQINNKAATGEEVPRTIIVTTRSQYGLPEDAIVYCNFNQLYKIDPSTLQMWANILKRVPNSVLWLLRFPAVGEPNIQQYAQNMGLPQNRIIFSPVAPKEEHVRRGQLADVCLDTPLCNGHTTGMDVLWAGTPMVTMPGETLASRVAASQLTCLGCLELIAKNRQEYEDIAVKLGTDLEYLKKVRGKVWKQRISSPLFNTKQYTMELERLYLQMWEHYAAGNKPDHMIKPVEVTESA
Regarding B4, the binding result in experiment [3] is “binds”.

B5: SLU7 (protein, UniProt O95391 1-586)
chain: MSATVVDAVNAAPLSGSKEMSLEEPKKMTREDWRKKKELEEQRKLGNAPAEVDEEGKDINPHIPQYISSVPWYIDPSKRPTLKHQRPQPEKQKQFSSSGEWYKRGVKENSIITKYRKGACENCGAMTHKKKDCFERPRRVGAKFTGTNIAPDEHVQPQLMFDYDGKRDRWNGYNPEEHMKIVEEYAKVDLAKRTLKAQKLQEELASGKLVEQANSPKHQWGEEEPNSQMEKDHNSEDEDEDKYADDIDMPGQNFDSKRRITVRNLRIREDIAKYLRNLDPNSAYYDPKTRAMRENPYANAGKNPDEVSYAGDNFVRYTGDTISMAQTQLFAWEAYDKGSEVHLQADPTKLELLYKSFKVKKEDFKEQQKESILEKYGGQEHLDAPPAELLLAQTEDYVEYSRHGTVIKGQERAVACSKYEEDVKIHNHTHIWGSYWKEGRWGYKCCHSFFKYSYCTGEAGKEIVNSEECIINEITGEESVKKPQTLMELHQEKLKEEKKKKKKKKKKHRKSSSDSDDEEKKHEKLKKALNAEEARLLHVKETMQIDERKRPYNSMYETREPTEEEMEAYRMKRQRPDDPMASFLGQ
Regarding B5, the binding entry in experiment [1] is listed as “binds”.
